Data published in doi:10.1101/2025.09.04.674186.
These are yes or no findings as the source states them, for the method shown. Binding seen in cells or lysates may run through a third protein. A yes stands for co-enrichment or nearness to the bait. Other partners may have been found.

By UniProt entry, the sequences of proteins in these tests, tags left out.
UniProt Q9NR30: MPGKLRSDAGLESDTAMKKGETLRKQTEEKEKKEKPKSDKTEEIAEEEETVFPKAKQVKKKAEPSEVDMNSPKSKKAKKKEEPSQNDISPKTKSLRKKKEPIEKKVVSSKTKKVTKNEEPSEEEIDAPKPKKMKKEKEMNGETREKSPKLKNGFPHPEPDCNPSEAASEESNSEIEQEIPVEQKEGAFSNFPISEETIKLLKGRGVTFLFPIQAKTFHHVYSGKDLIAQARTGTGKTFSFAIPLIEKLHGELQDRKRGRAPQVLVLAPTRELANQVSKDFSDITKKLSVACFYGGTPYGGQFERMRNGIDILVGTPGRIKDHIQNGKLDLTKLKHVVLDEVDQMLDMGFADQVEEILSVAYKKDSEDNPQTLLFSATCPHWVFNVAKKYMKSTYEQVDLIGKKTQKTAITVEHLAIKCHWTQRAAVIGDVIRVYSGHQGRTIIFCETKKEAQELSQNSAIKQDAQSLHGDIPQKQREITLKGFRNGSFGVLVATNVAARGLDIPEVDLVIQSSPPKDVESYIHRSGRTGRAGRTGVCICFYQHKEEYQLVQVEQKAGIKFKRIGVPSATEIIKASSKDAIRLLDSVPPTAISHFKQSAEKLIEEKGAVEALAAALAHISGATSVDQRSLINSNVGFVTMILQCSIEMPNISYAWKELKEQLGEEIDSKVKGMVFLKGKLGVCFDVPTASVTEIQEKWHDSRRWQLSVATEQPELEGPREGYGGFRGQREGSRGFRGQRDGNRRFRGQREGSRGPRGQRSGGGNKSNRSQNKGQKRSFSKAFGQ
UniProt Q13547: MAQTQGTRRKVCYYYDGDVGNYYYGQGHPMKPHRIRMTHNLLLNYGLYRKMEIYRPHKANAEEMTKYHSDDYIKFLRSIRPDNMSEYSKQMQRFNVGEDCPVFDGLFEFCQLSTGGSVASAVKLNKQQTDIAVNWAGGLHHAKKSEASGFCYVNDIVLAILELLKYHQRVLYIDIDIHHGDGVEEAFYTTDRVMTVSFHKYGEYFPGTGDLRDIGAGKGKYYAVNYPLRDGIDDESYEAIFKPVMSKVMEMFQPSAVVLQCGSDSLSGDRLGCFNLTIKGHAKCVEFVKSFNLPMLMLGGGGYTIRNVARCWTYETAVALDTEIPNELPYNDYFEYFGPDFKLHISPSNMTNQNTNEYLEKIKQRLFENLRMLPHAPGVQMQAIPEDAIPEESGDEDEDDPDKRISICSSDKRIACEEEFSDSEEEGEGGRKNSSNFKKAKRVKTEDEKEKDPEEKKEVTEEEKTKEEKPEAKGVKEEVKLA
UniProt Q92769: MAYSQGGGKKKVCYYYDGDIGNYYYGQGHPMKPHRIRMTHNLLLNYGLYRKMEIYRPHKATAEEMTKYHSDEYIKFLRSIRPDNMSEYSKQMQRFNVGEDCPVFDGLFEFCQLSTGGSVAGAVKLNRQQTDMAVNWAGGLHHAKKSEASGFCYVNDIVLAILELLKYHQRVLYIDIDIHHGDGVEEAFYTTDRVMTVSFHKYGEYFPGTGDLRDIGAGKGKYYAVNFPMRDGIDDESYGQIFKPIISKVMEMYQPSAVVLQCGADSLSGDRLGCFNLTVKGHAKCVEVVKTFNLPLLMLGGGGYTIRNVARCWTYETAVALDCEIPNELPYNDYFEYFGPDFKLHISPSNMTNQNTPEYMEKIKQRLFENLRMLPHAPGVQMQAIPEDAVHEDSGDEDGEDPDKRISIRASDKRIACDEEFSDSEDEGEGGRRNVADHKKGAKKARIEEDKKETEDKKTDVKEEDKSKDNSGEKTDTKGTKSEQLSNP

Target: DDX21-BioID2-HA (human) (UniProt Q9NR30)
Test: proximity labelling

binding | Substance
binds | HDAC1 (endogenous) (from UniProt Q13547 1-482) (enzyme)
binds | HDAC2 (endogenous) (from UniProt Q92769 1-488) (enzyme)
